Measurements reported in PubChem BioAssay AID1259254 (NCATS, 2017).
Screen: 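Finding genes that stop cells copying their DNA twice in one cycle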 (primary screen). Cells: human HCT116 colorectal cancer cells. Knock-down reagent: single siRNA against human genes. Duration: 3 days. Measurement: 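Imaged Hoechst DNA stain sorts each cell into a cycle phase by DNA amount; per plate, G2 fraction set to 0% for non-targeting and 100% for GMNN siRNA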. Direction: G2 robust z-score and G2 cells, % of GMNN control: higher = more G2 cells, more excess DNA replication. Call rule: 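Active siRNAs have a G2 robust z of 5 or more median absolute deviations over the median, which in these data means about 38% or higher of GMNN control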.
In all, the deposit lists about 59,000 reagents; this is a part drawn at random. Of all reagents, about 1,550 (2.6%) are marked active. 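G2 share is only a proxy for re-replication; each gene was hit by three separate siRNAs, and active genes were retested.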 Reagents against one gene are numbered here. Not all columns of the deposit are shown. Not given: the amount of reagent.

P2RX2 (GeneID 22953) #1
- G2 robust z-score: -0.496
- G2 cells, % of GMNN control: -0.519
- activity call: inactive

P2RX2 (GeneID 22953) #2
- G2 robust z-score: 2.22
- G2 cells, % of GMNN control: 18.6
- activity call: inactive

P2RX2 (GeneID 22953) #3
- G2 robust z-score: 0.333
- G2 cells, % of GMNN control: 5.31
- activity call: inactive

NPY2R (GeneID 4887) #1
- G2 robust z-score: 0.55
- G2 cells, % of GMNN control: 6.83
- activity call: inactive

NPY2R (GeneID 4887) #2
- G2 robust z-score: -0.261
- G2 cells, % of GMNN control: 1.13
- activity call: inactive

NPY2R (GeneID 4887) #3
- G2 robust z-score: 0.666
- G2 cells, % of GMNN control: 7.65
- activity call: inactive

SLC5A9 (GeneID 200010) #1
- G2 robust z-score: 1.02
- G2 cells, % of GMNN control: 10.2
- activity call: inactive

SLC5A9 (GeneID 200010) #2
- G2 robust z-score: 0.495
- G2 cells, % of GMNN control: 6.45
- activity call: inactive

SLC5A9 (GeneID 200010) #3
- G2 robust z-score: -0.193
- G2 cells, % of GMNN control: 1.61
- activity call: inactive

MAPK15 (GeneID 225689) #1
- G2 robust z-score: -0.666
- G2 cells, % of GMNN control: -1.72
- activity call: inactive

MAPK15 (GeneID 225689) #2
- G2 robust z-score: -1.27
- G2 cells, % of GMNN control: -5.94
- activity call: inactive

MAPK15 (GeneID 225689) #3
- G2 robust z-score: -1.54
- G2 cells, % of GMNN control: -7.9
- activity call: inactive

In a second layout: 2 of the entries above
| gene knocked down | reagent | G2 robust z-score | G2 cells, % of GMNN control | activity call |
| --- | --- | --- | --- | --- |
| SLC5A9 (GeneID 200010) | 2 | 0.495 | 6.45 | inactive |
| SLC5A9 (GeneID 200010) | 3 | -0.193 | 1.61 | inactive |
